Source: article PMC11480952
No constants are given. Whether binding was seen depends on the method and setting. In cells and extracts the contact can be indirect. Some binding calls cover weakened binding; strength is not graded here. Sequences can lack the tags named with a protein.

B1: OSTC (protein, UniProt Q9NRP0 1-149)
chain: METLYRVPFLVLECPNLKLKKPPWLHMPSAMTVYALVVVSYFLITGGIIYDVIVEPPSVGSMTDEHGHQRPVAFLAYRVNGQYIMEGLASSFLFTMGGLGFIILDRSNAPNIPKLNRFLLLFIGFVCVLLSFFMARVFMRMKLPGYLMG
B2: MYCL1 (protein, UniProt P12524 1-364)
chain: MDYDSYQHYFYDYDCGEDFYRSTAPSEDIWKKFELVPSPPTSPPWGLGPGAGDPAPGIGPPEPWPGGCTGDEAESRGHSKGWGRNYASIIRRDCMWSGFSARERLERAVSDRLAPGAPRGNPPKASAAPDCTPSLEAGNPAPAAPCPLGEPKTQACSGSESPSDSENEEIDVVTVEKRQSLGIRKPVTITVRADPLDPCMKHFHISIHQQQHNYAARFPPESCSQEEASERGPQEEVLERDAAGEKEDEEDEEIVSPPPVESEAAQSCHPKPVSSDTEDVTKRKNHNFLERKRRNDLRSRFLALRDQVPTLASCSKAPKVVILSKALEYLQALVGAEKRMATEKRQLRCRQQQLQKRIAYLTGY
B3: TOR1B (protein, UniProt O14657 25-336)
chain: FEPITVGLAIGAASAITGYLSYNDIYCRFAECCREERPLNASALKLDLEEKLFGQHLATEVIFKALTGFRNNKNPKKPLTLSLHGWAGTGKNFVSQIVAENLHPKGLKSNFVHLFVSTLHFPHEQKIKLYQDQLQKWIRGNVSACANSVFIFDEMDKLHPGIIDAIKPFLDYYEQVDGVSYRKAIFIFLSNAGGDLITKTALDFWRAGRKREDIQLKDLEPVLSVGVFNNKHSGLWHSGLIDKNLIDYFIPFLPLEYRHVKMCVRAEMRARGSAIDEDIVTRVAEEMTFFPRDEKIYSDKGCKTVQSRLDFH
B4: RB1 (protein, UniProt P06400 1-928)
chain: MPPKTPRKTAATAAAAAAEPPAPPPPPPPEEDPEQDSGPEDLPLVRLEFEETEEPDFTALCQKLKIPDHVRERAWLTWEKVSSVDGVLGGYIQKKKELWGICIFIAAVDLDEMSFTFTELQKNIEISVHKFFNLLKEIDTSTKVDNAMSRLLKKYDVLFALFSKLERTCELIYLTQPSSSISTEINSALVLKVSWITFLLAKGEVLQMEDDLVISFQLMLCVLDYFIKLSPPMLLKEPYKTAVIPINGSPRTPRRGQNRSARIAKQLENDTRIIEVLCKEHECNIDEVKNVYFKNFIPFMNSLGLVTSNGLPEVENLSKRYEEIYLKNKDLDARLFLDHDKTLQTDSIDSFETQRTPRKSNLDEEVNVIPPHTPVRTVMNTIQQLMMILNSASDQPSENLISYFNNCTVNPKESILKRVKDIGYIFKEKFAKAVGQGCVEIGSQRYKLGVRLYYRVMESMLKSEEERLSIQNFSKLLNDNIFHMSLLACALEVVMATYSRSTSQNLDSGTDLSFPWILNVLNLKAFDFYKVIESFIKAEGNLTREMIKHLERCEHRIMESLAWLSDSPLFDLIKQSKDREGPTDHLESACPLNLPLQNNHTAADMYLSPVRSPKKKGSTTRVNSTANAETQATSAFQTQKPLKSTSLSLFYKKVYRLAYLRLNTLCERLLSEHPELEHIIWTLFQHTLQNEYELMRDRHLDQIMMCSMYGICKVKNIDLKFKIIVTAYKDLPHAVQETFKRVLIKEEEYDSIIVFYNSVFMQRLKTNILQYASTRPPTLSPIPHIPRSPYKFPSSPLRIPGGNIYISPLKSPYKISEGLPTPTKMTPRSRILVSIGESFGTSEKFQKINQMVCNSDRVLKRSAEGSNPPKPLKKLRFDIEGSDEADGSKHLPGESKFQQKLAEMTSTRTRMQKQKMNDSMDTSNKEEK

biological target: serine/threonine protein kinase ARAF (v-raf murine sarcoma 3611 viral oncogene homolog) (human (endogenous in liver cancer cells)) (UniProt P10398); assay: co-IP; co-immunoprecipitation with anti-ARAF, Western blot; liver cancer cells of the rLV group and the rLV-CARM1 (CARM1 overexpressing) group compared

binding, binds:
B1, B2, B3, B4
